Results deposited as PubChem BioAssay AID686937 (Drosophila RNAi Screening Center, 2013).

- Screen: 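Genes whose loss weakens secretory pathway function in fly cells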 (primary screen)
- Cells: Drosophila S2 cells expressing secreted horseradish peroxidase
- Reagent: long dsRNA against Drosophila genes
- Time to read-out: about 5.5 days (5 days dsRNA, then 12 h reporter induction)
- Challenge: reporter expression induced after 5 days of dsRNA, read 12 h later; inducer not stated
- Detection: 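After 5 days of dsRNA and 12 h of reporter induction, medium peroxidase read by chemiluminescence and scored as per-plate z-score; higher values mean more reporter released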
- Scale: z-score: higher = more reporter secreted into medium
The deposit covers about 23,000 reagents; below is an unselected part of those with a known target gene and a result. 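Reduced-secretion tags in replicate 1 do not always agree with the z-scores; no criterion for assigning the tags was given.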 Further read-outs or replicates are left out here. No sequences are given here. The record does not give: the amount of reagent.

| gene knocked down | dsRNA | z-score, replicate 1 |
| --- | --- | --- |
| CG13083 | DRSC02187 | 0.05 |
| CG33784 | DRSC12764 | 0.01 |
| CG9593 | DRSC16508 | -0.26 |
| CG13926 | DRSC08395 | 0.12 |
| eIF3e (eukaryotic translation initiation factor 3 subunit e) | DRSC11199 | -4.19 |
| cpb (capping protein beta) | DRSC00809 | -0.28 |
| Muc96D (Mucin 96D) | DRSC13709 | 0.49 |
| Muc96D (Mucin 96D) | DRSC21609 | -0.19 |
| Z600 | DRSC11317 | 0.14 |
| Snx6 (Sorting nexin 6) | DRSC03081 | 0.36 |
| wake (wide awake) | DRSC16148 | 0.33 |
| wake (wide awake) | DRSC16149 | 0.35 |
| CG10214 | DRSC14213 | 0.31 |
| bam (bag of marbles) | DRSC16907 | 0.4 |
| Mst84Dd (Male-specific RNA 84Dd) | DRSC12600 | 0.22 |
| nAChRalpha6 (nicotinic Acetylcholine Receptor alpha6) | DRSC01096 | 0.69 |
| nAChRalpha6 (nicotinic Acetylcholine Receptor alpha6) | DRSC01098 | -0.88 |
| nAChRalpha6 (nicotinic Acetylcholine Receptor alpha6) | DRSC02738 | 0.39 |
| eEF1alpha2 (eukaryotic translation elongation factor 1 alpha 2) | DRSC14079 | 0.06 |
| eEF1alpha2 (eukaryotic translation elongation factor 1 alpha 2) | DRSC16658 | -0.93 |
| CG13471 | DRSC10015 | -0.07 |
| CG15638 | DRSC01875 | 0.56 |
| CG10996 | DRSC19363 | 0.31 |
| vls (valois) | DRSC02101 | 0.46 |
| Or88a (Odorant receptor 88a) | DRSC16770 | 0.26 |
| capt (capulet) | DRSC00676 | 0.23 |
| capt (capulet) | DRSC00806 | -0.44 |
| TORIP (Torsin interacting protein) | DRSC10104 | 0.19 |
| CG8372 | DRSC03086 | 0.46 |
| Mys45A (Mystery 45A) | DRSC07067 | -0.6 |
| CG42514 | DRSC10428 | 0.39 |
| BomBc2 (Bomanin Bicipital 2) | DRSC06502 | 0.05 |
| CG12111 | DRSC17808 | 0.27 |
| HSPC300 (Haematopoietic stem/progenitor cell protein 300) | DRSC22880 | -0.48 |
| CR33318 (pseudo) | DRSC22949 | 0.02 |
| jv (javelin) | DRSC08831 | 0.39 |
| jv (javelin) | DRSC08832 | 0.47 |
| Obp28a (Odorant-binding protein 28a) | DRSC03394 | 0.62 |
| Loxl1 (Lysyl oxidase-like 1) | DRSC14303 | 0.39 |
| CG11843 | DRSC14401 | 0.16 |
| CG43394 | DRSC01013 | -0.47 |
| CG43394 | DRSC21835 | 1.13 |
| kek6 (kekkon 6) | DRSC15299 | 0.53 |
| cry (cryptochrome) | DRSC16928 | 0.39 |
| TfIIEbeta (Transcription factor IIEbeta) | DRSC08701 | -5.79 |
| CG4849 | DRSC15662 | -4.19 |
| Alg11 (ALG11, alpha-1,2-mannosyltransferase) | DRSC11647 | 0.05 |
| cnir (cornichon related) | DRSC00499 | 0.3 |
| CG42268 | DRSC10171 | 0.26 |
| CG42268 | DRSC10702 | 0.01 |
| CG42268 | DRSC21797 | -1.48 |
| CG33493 | DRSC10642 | 0.17 |
| CG15097 | DRSC06526 | -3.45 |
| CG9970 | DRSC08644 | 0.11 |
| Cand1 (Cullin-associated and neddylation-dissociated 1) | DRSC01992 | 0.34 |
| CG33099 | DRSC15774 | 0.34 |
| Atg13 (Autophagy-related 13) | DRSC16228 | 0.22 |
| CG1695 | DRSC20538 | 0.1 |
| CG18473 | DRSC16381 | 0.13 |
| CG33453 | DRSC05782 | 0.33 |
| CG43894 | DRSC09225 | 0.14 |
| CG43894 | DRSC10123 | -0.05 |
| Jheh1 (Juvenile hormone epoxide hydrolase 1) | DRSC06529 | 0.47 |
| CG6282 | DRSC10616 | 0.22 |
| CG6553 | DRSC07002 | 0.34 |
| Ephrin | DRSC17165 | 0.44 |
| GNBP-like3 (GNBP-like 3) | DRSC06385 | 0.29 |
| CG32532 | DRSC19556 | 0.58 |
| CG32532 | DRSC19557 | 0.58 |
| CG32532 | DRSC19558 | 0.49 |
| CG32532 | DRSC21370 | 1.52 |
| apn (apnoia) | DRSC15124 | 0.35 |
| CG1314 | DRSC20495 | 0.34 |
| Serinc (Serine incorporator) | DRSC11296 | 0.34 |
| bcn92 | DRSC18741 | 0.15 |
| Npc2d (Niemann-Pick type C-2d) | DRSC14551 | 0.24 |
| ND-SGDH (NADH dehydrogenase (ubiquinone) SGDH subunit) | DRSC11102 | 0.01 |
| Rpt2 (Regulatory particle triple-A ATPase 2) | DRSC16799 | -5.21 |
| CG6163 | DRSC10595 | 0.49 |
| Lcp65Ad | DRSC11211 | 0.4 |
| CG30279 (retired record) | DRSC22417 | 0.25 |
| C901 | DRSC19351 | 0.41 |

9 successive reagents from above:
| gene knocked down | dsRNA | z-score, replicate 1 |
| --- | --- | --- |
| CG6282 | DRSC10616 | 0.22 |
| CG6553 | DRSC07002 | 0.34 |
| Ephrin | DRSC17165 | 0.44 |
| GNBP-like3 (GNBP-like 3) | DRSC06385 | 0.29 |
| CG32532 | DRSC19556 | 0.58 |
| CG32532 | DRSC19557 | 0.58 |
| CG32532 | DRSC19558 | 0.49 |
| CG32532 | DRSC21370 | 1.52 |
| apn (apnoia) | DRSC15124 | 0.35 |
